PMC7077750 (Journal of medicinal chemistry, 2020)
≈ marks a conversion by molar mass, not a printed value.

Test: physchem
Conditions: pH 7.4

O=[N+]([O-])CC(c1ccccc1)c1c(-c2ccccc2)[nH]c2ccccc12 (stereo not shown) [Compound 6d, 3-(2-Nitro-1-phenylethyl)-2-phenyl-1H-indole]
solubility thermodynamic: 2.7 µg/mL (≈ 7.89 µM)
